In assay [1] the target is p65 (Rela), NF-κB p65 subunit (human (endogenous in A549)) (UniProt Q04206). Description: co-IP; anti-p65 antibody (CST 8242) added to whole-cell lysates of A549 cells treated with exosomes from CAFs, overnight at 4 °C, Dynabeads Protein A/G, rabbit IgG as control; immunoblot.
Assay [2] deals with GST-conjugated p65 (ab114150, Abcam) (UniProt Q04206). Description: condition: only with the LINC01614 mutant lacking the stem-loop structure (973–1775); co-IP; IP analysis with a LINC01614 mutant lacking the stem-loop structure (973–1775) in place of wild-type LINC01614; the system (recombinant proteins or cells) is not stated.
For assay [3] the target is unchanged. The experiment in a line: co-IP; in vitro binding assay in IP lysis buffer: GST-conjugated p65, His-conjugated ANXA2 and folded in vitro-transcribed LINC01614 (full length, antisense control, or nucleotides 973–1775) incubated at room temperature for 1 h; immunoprecipitation and western blotting; both purified.
The target is the same in assay [4]. Description: co-IP; IP analysis with a LINC01614 mutant lacking the stem-loop structure (973–1775) in place of wild-type LINC01614; the system (recombinant proteins or cells) is not stated.

The chains behind the UniProt entries cited, without tags or fusion partners.
UniProt Q04206: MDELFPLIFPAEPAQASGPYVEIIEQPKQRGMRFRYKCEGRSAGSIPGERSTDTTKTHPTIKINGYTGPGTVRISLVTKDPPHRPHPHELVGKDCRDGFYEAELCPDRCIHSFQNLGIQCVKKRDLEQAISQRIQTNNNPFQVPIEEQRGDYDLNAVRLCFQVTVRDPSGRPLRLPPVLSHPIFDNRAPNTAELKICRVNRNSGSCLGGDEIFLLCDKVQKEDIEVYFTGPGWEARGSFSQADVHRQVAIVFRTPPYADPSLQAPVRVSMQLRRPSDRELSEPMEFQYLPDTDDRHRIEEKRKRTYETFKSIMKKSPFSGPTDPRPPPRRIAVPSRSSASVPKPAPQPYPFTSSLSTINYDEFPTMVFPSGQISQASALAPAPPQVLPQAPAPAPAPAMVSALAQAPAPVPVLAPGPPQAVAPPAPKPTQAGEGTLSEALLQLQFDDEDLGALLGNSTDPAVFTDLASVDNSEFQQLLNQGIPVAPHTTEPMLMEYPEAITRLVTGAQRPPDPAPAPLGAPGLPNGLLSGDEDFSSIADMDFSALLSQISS
UniProt P07355: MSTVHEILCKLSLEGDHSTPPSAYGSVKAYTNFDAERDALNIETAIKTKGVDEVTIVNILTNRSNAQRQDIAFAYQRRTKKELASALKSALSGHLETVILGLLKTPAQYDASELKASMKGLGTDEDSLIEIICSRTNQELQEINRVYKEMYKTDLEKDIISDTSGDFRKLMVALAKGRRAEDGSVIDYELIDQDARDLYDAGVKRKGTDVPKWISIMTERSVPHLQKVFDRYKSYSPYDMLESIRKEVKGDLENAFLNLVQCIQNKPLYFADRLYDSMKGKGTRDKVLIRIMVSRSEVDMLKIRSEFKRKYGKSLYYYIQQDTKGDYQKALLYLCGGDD

These are yes or no findings as the source states them, for the method shown. For some of these results: Binding seen in cells or lysates may run through a third protein. Some binding calls cover weakened binding; strength is not graded here.

For the substance “Annexin A2 (ANXA2) (from UniProt P07355 1-339)”, the binding result in assay [1] is on record as “binds”.

As for “His-conjugated ANXA2 (ab93005, Abcam) (from UniProt P07355 1-339)”, the binding result in assay [2] was “no binding”; in assay [3] it was “binds”; in assay [4], “binds”.
